# Literature values, collected in PMC9400510, “Interaction between glyphosate pesticide and amphiphilic peptides for colorimetric analysis” (Nanoscale Advances, 2022).
# Details: PNG detection, UV-vis methods
compound,measurement,value
"Cc1cc(-c2cc(C)c(N)c(C)c2)cc(C)c1N [3,3′,5,5′-Tetramethylbenzidine]",LOD,1 mM
same,Linear region,2 to 150 mM
